{"source": "paper PMC10580935", "molecular_target": "T1, Zur (Mycobacterium bovis BCG) (UniProt P9WN85)", "T1 sequence (looked up)": "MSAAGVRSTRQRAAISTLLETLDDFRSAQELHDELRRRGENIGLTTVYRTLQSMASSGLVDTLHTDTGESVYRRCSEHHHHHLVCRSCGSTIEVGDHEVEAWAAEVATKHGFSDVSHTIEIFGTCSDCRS", "assay": "EMSA", "conditions": "20 mM Tris-HCl pH 8.0, 1 mM DTT, 50 mM KCl, 5 mM MgCl2, 0.05 mg/mL BSA, 10% glycerol, recombinant protein, residues 1-130, probe letters rebuilt from the primers and the genome", "note": "Where a protein sequence is shown, tags need not be part of it.", "data": [{"sequence": "ACTGGCTAAATCCGTTGCCGCTGCCGCGATAACCTCTGGCGCCGCAATCACAAACGACATCTGACACCTCCCAATACGCATGACCGCTCTGTCATGCCGACCCGGGGAACGTCACCAGCAAAAATCGGCGGGCTACAGAATAACTCCGGCCCGGGAAAGGGATTTGGTATTTCCCAAAATATCTCCCACATTTATGCGGTCGGCGCGTCGGCCGACGGGAGCTGGCAGCACCCGTGGGCCGGCGCCGAGCGTTCGCTGGTGTCCGGCTGGGACTTGCATTGCGGCGCGCCGTGGTGTGGAATAGTGGTAATGAAAATCATGTTCATCAGTCCTCTGTGGTGTTTACGGCT (double strand) [esx-3p1]", "values": [{"measurement": "binding result", "result": "binds"}, {"measurement": "binding result", "setting": "no added zinc", "result": "binds"}]}]}
